Results as given in the supplement of paper PMC12823440, “Inhibitors supercharge kinase turnover through native proteolytic circuits” (Nature, 2025).
Structures can show the parent of a compound that is named as a salt. This is one part of the list. The calls rarely recur for the same compound in another form.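 Kinases were expressed as nanoluciferase fusions in K562 cells and luminescence was read every 4 h between 2 and 18 h as percent of control, DMSO set to 100% and a positive control to 0%. A time point counts as decreased when the signal drops significantly (2 sigma). The hit call is the authors' own, does not follow from the count of time points alone, and its rule is not shown.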

Sequences of proteins named here, by UniProt entry; tags and fusion partners are left off. A change or cut given only in a name is not applied to a line headed by its entry.
UniProt Q9UBF8: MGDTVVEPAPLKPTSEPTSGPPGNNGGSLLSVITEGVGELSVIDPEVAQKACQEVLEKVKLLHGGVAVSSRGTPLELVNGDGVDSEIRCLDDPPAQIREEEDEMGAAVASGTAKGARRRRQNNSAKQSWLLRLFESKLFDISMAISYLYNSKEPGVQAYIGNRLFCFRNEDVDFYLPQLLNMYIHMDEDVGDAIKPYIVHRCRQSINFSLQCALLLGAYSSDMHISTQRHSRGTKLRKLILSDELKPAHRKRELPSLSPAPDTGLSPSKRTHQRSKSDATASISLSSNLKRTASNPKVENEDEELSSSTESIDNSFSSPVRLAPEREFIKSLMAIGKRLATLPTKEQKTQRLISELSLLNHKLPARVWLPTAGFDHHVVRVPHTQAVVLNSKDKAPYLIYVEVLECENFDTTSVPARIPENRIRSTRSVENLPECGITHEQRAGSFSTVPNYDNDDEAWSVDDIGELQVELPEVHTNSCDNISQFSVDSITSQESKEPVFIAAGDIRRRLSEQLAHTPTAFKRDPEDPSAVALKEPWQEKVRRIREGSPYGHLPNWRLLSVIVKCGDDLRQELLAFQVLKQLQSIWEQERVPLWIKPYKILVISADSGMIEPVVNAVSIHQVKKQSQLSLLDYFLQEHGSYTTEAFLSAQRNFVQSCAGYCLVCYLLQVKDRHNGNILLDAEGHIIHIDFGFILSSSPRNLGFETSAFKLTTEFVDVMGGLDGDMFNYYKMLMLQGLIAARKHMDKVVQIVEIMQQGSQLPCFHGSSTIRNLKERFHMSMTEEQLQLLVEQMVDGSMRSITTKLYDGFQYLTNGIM

What follows are molecules tested against PIK4CB (UniProt Q9UBF8) (assay: number of time points (of 5) at which kinase-Nluc abundance scored as decreased, DMSO-normalised (count); higher = more persistent destabilization). Settings: K562; 2-18 h.

Row | SMILES | number of time points
1 | O=C1Nc2ccc(C(=O)c3ccco3)cc2C1=Cc1cc(Cl)c(O)c(Cl)c1 (2.5 µM) | 1
2 | C=CC(=O)Nc1cc(Nc2ncc(Cl)c(-c3c[nH]c4ccccc34)n2)c(OC)cc1N(C)CCN(C)C [Mutant EGFR inhibitor] (2.5 µM) | 2
3 | C[C@@H](c1ccc(-c2ccccc2)c(F)c1)c1cc(NC(=N)N2CCOCC2)on1 [Rimacalib] (10 µM) | 0
4 | Cn1nccc1Nc1nccc(-c2ccn([C@H](CO)c3ccc(Cl)c(F)c3)c(=O)c2)n1 [Ravoxertinib hydrochloride] (10 µM) | 0
5 | Oc1cc2c(cc1O)C(Cc1cccc3ccccc13)NCC2 (stereo not drawn) (10 µM) | 0
6 | O=C1N[C@@H](Cc2c[nH]c3ccccc23)C(=O)N2CCC[C@@H]12 [Brevianamide F] (10 µM) | 0
7 | CCS(=O)(=O)Nc1ccc2[nH]c(O)c(C(=Nc3ccc(CN4CCCCC4)cc3)c3ccccc3)c2c1 [Hesperadin] (2.5 µM) | 1
8 | O=C1NC(=O)/C(=C/c2ccc3nccnc3c2)S1 (10 µM) | 0
9 | CNc1nc(Nc2ccc(C(=O)N3CCOCC3)cc2OC)nc2[nH]cc(Cl)c12 (2.5 µM) | 0
10 | CC#CC(=O)N1CC[C@@H](n2c(=O)n(-c3ccc(Oc4ccccc4)cc3)c3c(N)ncnc32)C1 [Tirabrutinib] (10 µM) | 0
11 | CCc1c(C(=O)NNC(=O)C(O)c2cc(F)cc(F)c2)ccc(O)c1C (stereo not drawn) (10 µM) | 0
12 | CNC(=O)c1ccc(C)c(-n2c(C)cc(OCc3ccc(F)cc3F)c(Br)c2=O)c1 (10 µM) | 0
13 | O=C(NOCC(O)CO)c1cc(Br)c(F)c(F)c1Nc1ccc(I)cc1F (stereo not drawn) (2.5 µM) | 0

Pulled one by one from above, 2 records:
Row | SMILES | number of time points
3 | C[C@@H](c1ccc(-c2ccccc2)c(F)c1)c1cc(NC(=N)N2CCOCC2)on1 [Rimacalib] (10 µM) | 0
11 | CCc1c(C(=O)NNC(=O)C(O)c2cc(F)cc(F)c2)ccc(O)c1C (stereo not drawn) (10 µM) | 0
